Measured data: PubChem BioAssay AID652243 (Drosophila RNAi Screening Center, 2013)

Screen: 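Knock-downs that decrease or increase androgen receptor reporter signal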 (primary screen)
System: Drosophila S2R+ cells
Knock-down reagent: long dsRNA against Drosophila genes
Time to read-out: 72 h (48 h, then 24 h hormone)
Treatment: synthetic androgen R1881 at 10 nM for 24 h
Measured: 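Per-well raw luminescence of the androgen-driven firefly reporter and of the Renilla control, two replicates each, without normalisation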
Reading the numbers: firefly reporter light: higher = more light from androgen-responsive reporter; Renilla control light: higher = more constitutive control signal (cell number, transfection)
Call rule: 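Hit when the log firefly-to-Renilla ratio dropped or increased by a fixed fold versus the mean of GFP or LacZ controls across duplicate plates; lowering cut given as 1.5 and as 3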
Calls: active = hit: reporter lowered or raised; inactive = no hit
The deposit covers about 24,000 reagents; shown is an unselected part of those that have a named target and a result. Of all reagents, 246 (1%) got an active call. 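Plates not normalised; calls are printed but the firefly/Renilla ratio behind them is not deposited; fold cut for lowering reported inconsistently.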 Raw values are not corrected between plates. A plus sign joins genes that one reagent is predicted to hit. Reagent sequences are not shown. Not stated in the record: the amount of reagent.

| Target gene | amplicon | firefly reporter light, replicate 1 | firefly reporter light, replicate 2 | Renilla control light, replicate 1 | Renilla control light, replicate 2 | outcome |
| --- | --- | --- | --- | --- | --- | --- |
| Cyp310a1 (GeneID 35115) | DRSC03301 | 9.40e5 | 7.36e5 | 1.55e6 | 1.32e6 | inactive |
| Cyp310a1 (GeneID 35115) | DRSC29160 | 4.15e5 | 4.16e5 | 1.39e6 | 9.80e5 | inactive |
| CG33341 (GeneID 2768683) | DRSC22887 | 7.25e5 | 8.80e5 | 2.35e6 | 2.41e6 | inactive |
| CG33341 (GeneID 2768683) | DRSC24893 | 1.16e6 | 1.26e6 | 7.28e5 | 7.32e5 | inactive |
| CG33341 (GeneID 2768683) | DRSC39098 | 7.56e5 | 6.90e5 | 1.55e6 | 1.47e6 | inactive |
| CG16825 (GeneID 34739) | DRSC02526 | 1.51e5 | 2.01e5 | 1.29e6 | 1.07e6 | inactive |
| att-ORFB + DPCoAC | DRSC15556 | 2.03e5 | 2.95e5 | 2.63e6 | 3.00e6 | inactive |
| MED7 (GeneID 41288) | DRSC16059 | 1.25e5 | 1.29e5 | 2.68e6 | 2.01e6 | inactive |
| MED7 (GeneID 41288) | DRSC29232 | 2.68e5 | 3.26e5 | 7.44e5 | 5.87e5 | inactive |
| Yp2 (GeneID 31938) | DRSC18732 | 1.24e5 | 1.38e5 | 7.32e5 | 7.33e5 | inactive |
| Yp2 (GeneID 31938) | DRSC29289 | 5.93e5 | 5.54e5 | 1.66e6 | 1.13e6 | inactive |
| CG11999 (GeneID 40637) | DRSC12185 | 1.20e5 | 91312 | 2.17e6 | 2.08e6 | inactive |
| CG8750 (GeneID 50285) | DRSC11037 | 2.87e5 | 2.82e5 | 2.15e6 | 1.94e6 | inactive |
| Pgm2b (GeneID 36649) | DRSC05978 | 6.91e5 | 9.70e5 | 2.20e6 | 2.31e6 | inactive |
| Pgm2b (GeneID 36649) | DRSC26452 | 3.21e5 | 2.37e5 | 7.55e5 | 6.61e5 | inactive |
| Bgb (GeneID 38198) | DRSC08148 | 1.17e6 | 9.06e5 | 1.45e6 | 1.65e6 | inactive |
| Bgb (GeneID 38198) | DRSC25855 | 2.39e5 | 3.29e5 | 7.50e5 | 7.86e5 | inactive |
| CG43795 (GeneID 5740629) | DRSC04192 | 3.55e5 | 4.36e5 | 2.28e6 | 1.48e6 | inactive |
| CG43795 (GeneID 5740629) | DRSC04193 | 3.05e5 | 3.23e5 | 1.97e6 | 2.16e6 | inactive |
| CG43795 (GeneID 5740629) | DRSC04194 | 3.71e5 | 3.73e5 | 3.04e6 | 2.29e6 | inactive |
| CG43795 (GeneID 5740629) | DRSC04309 | 4.31e5 | 3.18e5 | 2.52e6 | 1.59e6 | inactive |
| CG43795 (GeneID 5740629) | DRSC04310 | 1.99e5 | 2.30e5 | 1.67e6 | 1.70e6 | inactive |
| CG43795 (GeneID 5740629) | DRSC04497 | 1.72e5 | 2.97e5 | 1.45e6 | 1.35e6 | inactive |
| CG43795 (GeneID 5740629) | DRSC22826 | 3.61e5 | 6.04e5 | 7.55e5 | 1.31e6 | inactive |
| CG43795 (GeneID 5740629) | DRSC25149 | 8.63e5 | 8.59e5 | 7.88e5 | 9.36e5 | inactive |
| CG43795 (GeneID 5740629) | DRSC26752 | 4.93e5 | 3.80e5 | 1.10e6 | 8.91e5 | inactive |
| mRpS23 (GeneID 318977) | DRSC01348 | 2.68e5 | 3.97e5 | 6.55e5 | 6.06e5 | inactive |

Targets listed so far whose target name starts with Y or y (2):
| Target gene | amplicon | firefly reporter light, replicate 1 | firefly reporter light, replicate 2 | Renilla control light, replicate 1 | Renilla control light, replicate 2 | outcome |
| --- | --- | --- | --- | --- | --- | --- |
| Yp2 (GeneID 31938) | DRSC18732 | 1.24e5 | 1.38e5 | 7.32e5 | 7.33e5 | inactive |
| Yp2 (GeneID 31938) | DRSC29289 | 5.93e5 | 5.54e5 | 1.66e6 | 1.13e6 | inactive |

The list goes on:
| Target gene | amplicon | firefly reporter light, replicate 1 | firefly reporter light, replicate 2 | Renilla control light, replicate 1 | Renilla control light, replicate 2 | outcome |
| --- | --- | --- | --- | --- | --- | --- |
| CG11409 (GeneID 31078) | DRSC18579 | 69761 | 54352 | 5.35e5 | 3.67e5 | inactive |
| CG11409 (GeneID 31078) | DRSC28360 | 3.05e5 | 4.58e5 | 1.09e6 | 1.62e6 | inactive |
| CG9029 (GeneID 33815) | DRSC03129 | 2.12e5 | 2.24e5 | 2.30e6 | 1.98e6 | inactive |
| PIG-F (GeneID 40139) | DRSC11069 | 2.62e5 | 1.99e5 | 2.65e6 | 2.28e6 | inactive |
| PIG-F (GeneID 40139) | DRSC27027 | 3.96e5 | 2.69e5 | 6.78e5 | 3.91e5 | inactive |
| Mkp + CG34140 | DRSC08585 | 5.27e5 | 6.87e5 | 1.17e6 | 1.13e6 | inactive |
| Adf1 (GeneID 47082) | DRSC04941 | 1.41e5 | 1.43e5 | 2.87e5 | 3.00e5 | inactive |
| Adf1 (GeneID 47082) | DRSC04963 | 1.12e6 | 1.00e6 | 3.29e6 | 2.79e6 | inactive |
| CG33225 (GeneID 2768860) | DRSC03881 | 1.91e5 | 2.10e5 | 2.25e5 | 2.74e5 | inactive |
| gom (GeneID 43934) | DRSC04690 | 3.31e5 | 3.26e5 | 2.26e6 | 2.00e6 | inactive |
| Acsx1L (GeneID 42351) | DRSC16014 | 2.09e5 | 1.29e5 | 2.66e6 | 1.69e6 | inactive |
| Acsx1L (GeneID 42351) | DRSC25334 | 9.20e5 | 1.40e6 | 6.27e5 | 1.16e6 | inactive |
| eIF2A (GeneID 40431) | DRSC11825 | 45730 | 56231 | 3.30e5 | 4.35e5 | inactive |
| COX6AL2 (GeneID 40066) | DRSC10082 | 2.01e5 | 2.28e5 | 2.46e6 | 2.48e6 | inactive |
| tun (GeneID 36743) | DRSC05592 | 2.15e5 | 2.04e5 | 3.97e5 | 3.31e5 | inactive |
| tun (GeneID 36743) | DRSC07127 | 1.04e6 | 9.57e5 | 2.60e6 | 2.80e6 | inactive |
| Ras85D (GeneID 41140) | DRSC16814 | 1.27e5 | 1.03e5 | 1.55e6 | 1.50e6 | inactive |
| Ras85D (GeneID 41140) | DRSC39132 | 7.45e5 | 7.87e5 | 1.31e6 | 1.12e6 | inactive |
| Mbs (GeneID 49070) | DRSC09414 | 2.81e5 | 1.37e5 | 7.16e5 | 3.57e5 | inactive |
| Mbs (GeneID 49070) | DRSC10525 | 68134 | 66239 | 7.43e5 | 4.35e5 | inactive |
| Mbs (GeneID 49070) | DRSC10553 | 3.44e5 | 5.65e5 | 1.41e6 | 1.70e6 | active |
| Mbs (GeneID 49070) | DRSC24459 | 3.88e5 | 4.88e5 | 5.49e5 | 5.59e5 | inactive |
| CG15731 (GeneID 32194) | DRSC19698 | 3.69e5 | 4.78e5 | 3.18e6 | 3.60e6 | inactive |
| CG15731 (GeneID 32194) | DRSC21820 | 5.48e5 | 5.05e5 | 2.02e6 | 2.32e6 | inactive |
| CG15731 (GeneID 32194) | DRSC26144 | 4.48e5 | 2.63e5 | 7.56e5 | 7.08e5 | inactive |
| CG34423 + Mthfs | DRSC04088 | 2.30e5 | 3.51e5 | 1.60e6 | 1.44e6 | inactive |
| hpRNA:CR32205 (GeneID 3772102) | DRSC09610 | 2.12e5 | 2.37e5 | 3.23e5 | 3.87e5 | inactive |
| hpRNA:CR32205 (GeneID 3772102) | DRSC09890 | 2.05e5 | 2.81e5 | 2.46e6 | 3.10e6 | inactive |
| hpRNA:CR32205 (GeneID 3772102) | DRSC28015 | 5.73e5 | 4.95e5 | 1.67e6 | 1.43e6 | inactive |
| Sry-beta (GeneID 43570) | DRSC16868 | 77186 | 90909 | 3.41e5 | 2.99e5 | inactive |
| Sry-beta (GeneID 43570) | DRSC24321 | 1.46e5 | 1.73e5 | 3.04e5 | 1.79e5 | inactive |
| btd (GeneID 31912) | DRSC18747 | 2.99e5 | 3.66e5 | 2.90e6 | 2.49e6 | inactive |
| btd (GeneID 31912) | DRSC29060 | 6.21e5 | 5.20e5 | 1.43e6 | 1.36e6 | inactive |
| CG44085 (GeneID 34732) | DRSC02929 | 2.36e5 | 3.33e5 | 1.48e6 | 2.06e6 | inactive |
| CG44085 (GeneID 34732) | DRSC23040 | 6.78e5 | 7.93e5 | 1.22e6 | 1.26e6 | inactive |
| CG31380 (GeneID 318701) | DRSC15688 | 1.44e5 | 2.11e5 | 1.88e6 | 1.77e6 | inactive |
| Mical (GeneID 41225) | DRSC14349 | 88878 | 86940 | 1.57e6 | 1.49e6 | inactive |
| Mical (GeneID 41225) | DRSC14351 | 1.19e5 | 1.57e5 | 1.97e6 | 2.52e6 | inactive |
| Mical (GeneID 41225) | DRSC15365 | 91539 | 1.23e5 | 1.59e6 | 1.56e6 | inactive |
| Mical (GeneID 41225) | DRSC15366 | 1.18e5 | 1.75e5 | 2.83e6 | 2.90e6 | inactive |
| BomS1 (GeneID 37100) | DRSC22678 | 6.79e5 | 6.80e5 | 3.24e5 | 2.33e5 | inactive |
| CG5693 (GeneID 50463) | DRSC02878 | 1.93e5 | 1.66e5 | 1.87e6 | 1.86e6 | inactive |
| Septin5 (GeneID 43990) | DRSC06843 | 1.29e6 | 1.02e6 | 1.99e6 | 1.76e6 | inactive |
| Septin5 (GeneID 43990) | DRSC29954 | 6.80e5 | 5.54e5 | 1.24e6 | 1.41e6 | inactive |
| CG14949 (GeneID 38328) | DRSC08408 | 1.54e5 | 1.27e5 | 2.87e6 | 2.26e6 | inactive |
| CG31371 (GeneID 43626) | DRSC15079 | 2.31e5 | 2.06e5 | 1.98e6 | 2.55e6 | inactive |
| CG17574 (GeneID 36415) | DRSC06681 | 4.24e5 | 4.50e5 | 2.97e6 | 2.82e6 | inactive |
